Results taken from article doi:10.1101/2025.11.10.687516 (bioRxiv, 2025).
These are yes or no findings as the source states them, for the method shown. Some results given as binding are weak or reduced against the parent protein; the word gives no strength.

Biological target: T1, GrxD (E. coli K-12 BW25113 (endogenous in the lysate)) (UniProt P0AC69)
T1 sequence: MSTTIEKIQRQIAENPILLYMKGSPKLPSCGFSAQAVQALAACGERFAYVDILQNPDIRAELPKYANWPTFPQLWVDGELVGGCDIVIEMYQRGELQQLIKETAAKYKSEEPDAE
Assay: SEC

- binding: binds
B1: BolA (protein, UniProt P0ABE2 1-105)
chain: MMIRERIEEKLRAAFQPVFLEVVDESYRHNVPAGSESHFKVVLVSDRFTGERFLNRHRMIYSTLAEELSTTVHALALHTYTIKEWEGLQDTVFASPPCRGAGSIA
